Binding data for 1 molecule are collected here from patent US20240002514A1.

These are yes or no findings as the source states them, for the method shown. Some results given as binding are weak or reduced against the parent protein; the word gives no strength.

Test [1] has as its target recombinant cynomolgus monkey PD-L1 Fc chimera (Sino Biological, cat #90251-C02H) (cynomolgus monkey) (UniProt G7PSE7). Kind of test: direct ELISA, Fc chimera coated at 1 ug/mL, anti-human kappa HRP detection.
For test [2] the target is unchanged. Briefly: ELISA on directly coated cynomolgus PD-L1 Fc chimera (1 ug/mL), detection anti-human kappa light chain-HRP. In general terms: In an ELISA, binding on a coated surface is turned into a signal by an enzyme label.

B1: 3C5-2G12 IgM antibody (antibody)
heavy: QVQLKESGPGLVAPSQSLSITCTVSGFSLTSYDISWVRQPPGKGLEWLGVIWTGVGTNYNSAFMSRLSISKDNSKSQVFLKMNSLQTDDTAMYYCVRDPYYYGMDYWGQGTSVTVSSGSASAPTLFPLVSCENSPSDTSSVAVGCLAQDFLPDSITFSWKYKNNSDISSTRGFPSVLRGGKYAATSQVLLPSKDVMQGTDEHVVCKVQHPNGNKEKNVPLPVIAELPPKVSVFVPPRDGFFGNPRKSKLICQATGFSPRQIQVSWLREGKQVGSGVTTDQVQAEAKESGPTTYKVTSTLTIKESDWLSQSMFTCRVDHRGLTFQQNASSMCVPDQDTAIRVFAIPPSFASIFLTKSTKLTCLVTDLTTYDSVTISWTRQNGEAVKTHTNISESHPNATFSAVGEASICEDDWNSGERFTCTVTHTDLPSPLKQTISRPKGVALHRPDVYLLPPAREQLNLRESATITCLVTGFSPADVFVQWMQRGQPLSPEKYVTSAPMPEPQAPGRYFAHSILTVSEEEWNTGETYTCVVAHEALPNRVTERTVDKSTGKPTLYNVSLVMSDTAGTCY
light: DIQMNQSPSSLSASLGDTITITCRASQDISIWLSWYQQKPGNIPELLIYKASNLHTGVPPRFSGSGSGTDFTLTISSLQPEDIATYYCLQSQSFPRTFGGGTKLEIKRTVAAPSVFIFPPSDEQLKSGTASVVCLLNNFYPREAKVQWKVDNALQSGNSQESVTEQDSKDSTYSLSSTLTLSKADYEKHKVYACEVTHQGLSSPVTKSFNRGEC
On to B1, for which the binding entry in test [1] and in test [2] was “binds” throughout.
